The assay has as its target T1, Spt20-TAP (S. cerevisiae) (UniProt P50875).
T1 sequence: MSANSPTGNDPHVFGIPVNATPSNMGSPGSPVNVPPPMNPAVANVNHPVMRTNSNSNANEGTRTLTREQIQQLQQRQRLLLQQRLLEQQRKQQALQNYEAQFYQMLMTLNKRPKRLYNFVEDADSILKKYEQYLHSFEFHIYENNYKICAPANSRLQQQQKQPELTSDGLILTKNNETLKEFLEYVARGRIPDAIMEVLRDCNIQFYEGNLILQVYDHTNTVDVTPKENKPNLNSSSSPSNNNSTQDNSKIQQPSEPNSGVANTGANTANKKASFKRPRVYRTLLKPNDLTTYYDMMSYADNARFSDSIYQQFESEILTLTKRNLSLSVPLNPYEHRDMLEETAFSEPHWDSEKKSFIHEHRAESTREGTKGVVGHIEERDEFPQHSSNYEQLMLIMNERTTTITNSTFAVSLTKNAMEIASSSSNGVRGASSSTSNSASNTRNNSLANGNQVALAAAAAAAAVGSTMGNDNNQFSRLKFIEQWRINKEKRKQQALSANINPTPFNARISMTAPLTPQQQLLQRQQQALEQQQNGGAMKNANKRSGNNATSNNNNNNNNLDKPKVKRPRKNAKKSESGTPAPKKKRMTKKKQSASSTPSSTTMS
Nature of the assay: co-IP.

Experimental findings from article doi:10.1101/710020 are described below.

These are yes or no findings as the source states them, for the method shown. In cells and extracts the contact can be indirect. Some results given as binding are weak or reduced against the parent protein; the word gives no strength. Where a sequence is shown, tags or fusion partners need not be part of it.

B1: Spt8-myc (protein, UniProt P38915 1-602)
chain: MDEVDDILINNQVVDDEEDDEEMLSGLENDSKQDLEGNDDGGEDEEDDDDDDEDDDDDEDEREDDDEQEDDDGEDDAARMDKTATPTNEHQHDEQKAAAAGAGGAGDSGDAVTKIGSEDVKLSDVDGGVGSREASSSTHEASANGEVYEYYKHMLNAAQIADSYNIYPTAAIPIQTHVNALAVSRGLKYLFLGGSDGYIRKYDLLNTLEGKLSLTILQKHSLAESIQNAGILQSYWENEIPQKKSEMKLSANKTDYEPKVSPVHSLEVQSECLFILSGLQNGGITMQGVRYMEGSIAHYFKGRNGHTQIVNILRLNGQEDRFLSGSWDKRLLEWDLQTGDIVNEFKKSRSELSSLEMRPLYSSVDVSGNVNSGKENENADDDMDSLFGDEDEDEKQDAGNEPVETGDGSNGEENKEQISEESLNIVYDESVFMTSGLNGSVHIWDRRMTQSPALSLERGAGVPPWCLSACWGVDGDHVYAGRRNACVEQFDLKMPSKPIHNLKLPSISGPVSCVKAMPNNKHLLCASRDNIRLYNVEIAVDASNSTTKSSKVPFLIVPGHHGGIISNLYLDPTSRFIISTSGNRGWQGNSTDTTLIYDIDLE
For the molecule B1, the binding entry is given as “binds”.
